PubChem BioAssay AID588499 (NMMLSC, 2011)
Among all 360,000 compounds or so, about 610 (0.17%) were called active. The shares of active, inactive and inconclusive entries below differ from those in the screen. Cut-off read from the data, not from the text of the source: active = inhibition above about 30%; inconclusive = no clear call, values can overlap the other calls; inactive = below that.

test system: Botulinum neurotoxin type A light chain protease (Clostridium botulinum A str. ATCC 3502); test: blockers of BoNT/A LC substrate cleavage – biochemical, flow cytometry, MLPCN library, primary screen (AID 588499); settings: multiplex microsphere protease substrate cleavage, at 10 µM, stronger effect = higher value; note: plate controls were buffer without enzyme for full effect and enzyme alone for no effect

SMILES | inhibition
Cc1cc(C)n2nc(C(=O)N/N=C/c3cn(C)nc3C)nc2n1 | inconclusive: 3.7%
COC(=O)c1ccccc1Nc1ccccc1 | inactive: -1.4%
Cc1cccn2cc(-c3ccc(Cl)cc3)nc12 | inactive: 0.3%
CCOc1ccc(NC(=O)CN(C)C(=O)c2ccccc2OCc2cccc(C)c2)cc1OCC | inconclusive: -6.3%
O=C(CNC(=O)c1ccc(Cl)c([N+](=O)[O-])c1)OCN1C(=O)c2ccccc2C1=O | inactive: -1.3%
COCCNC(=O)C(=O)N/N=C(\C)CC(=O)Nc1cccc(C(F)(F)F)c1 | inconclusive: -13.7%
COc1ccc(CN2CCOCCOCCOCCOCC2)cc1 | inconclusive: 3.6%
Cc1cc(C(=O)Nc2c(C)nn(Cc3c(Cl)cccc3Cl)c2C)no1 | inconclusive: 4.9%
CN(C(=O)Nc1ccc(Cl)cc1)c1c2c(nn1C)CCCC2 | inconclusive: -2.8%
COc1cc(OC)cc(-c2c(-c3cccs3)c3cc(-c4cc(OC)c(OC)c(OC)c4)ccc3n2C)c1 | inactive: 0.1%
C=CCOc1ccccc1CN1CCN(CCc2ccccc2)C(CCO)C1 (stereo not given) | inactive: 1.1%
CCC(C(=O)N1CCC2(CC1)OCCO2)c1ccccc1 (stereo not given) | inconclusive: -0.3%
C=COC(=O)c1sc2nc(C)cc(C)c2c1N | inconclusive: 6.4%
CCOC(=O)CSc1nnc(Cc2cc(=O)[nH]c(=O)[nH]2)n1-c1cccc(OC)c1 | inconclusive: 0.9%
O=C(COC(=O)C1CCC1)NCc1ccc(Cl)cc1Cl | inconclusive: -1%
Cc1cc(-c2nc3ccccc3o2)c2ccccc2n1 | inconclusive: -4.6%
CCOC(=O)C1=C(N)n2c(s/c(=C/c3ccco3)c2=O)=C(C(=O)OC)C1c1ccco1 (stereo not given) | inconclusive: 0.8%
CC(C)(C)c1nc2ccccc2[nH]1 | inconclusive: -3.2%
CCC(C)(CC(=O)O)CC(=O)Nc1cc(C(F)(F)F)cc(C(F)(F)F)c1 (stereo not given) | inconclusive: 7.8%
COc1ccc(-c2nnc(SCC(=O)Nc3cccc(Cl)c3)o2)cc1 | inconclusive: -3.9%
O=c1[nH]c2ccc(NS(=O)(=O)c3ccc(Cl)cc3)cc2[nH]1 | inactive: -0.5%
Cc1ccc(NC(=O)COC(=O)c2ccc3c(c2)NC(=O)C2CCCN32)cc1 (stereo not given) | inconclusive: -1.7%
O=C1C2C(C(=O)N1CCN1CCN(Cc3ccc([N+](=O)[O-])cc3)CC1)[C@H]1C=C[C@@H]2C1 (stereo not given in full) | inconclusive: 27.7%

SMILES | inhibition
CCN(CC)S(=O)(=O)c1cc(NC(=O)C(C)N2CCc3ccccc32)ccc1C (stereo not given) | inconclusive: -1%
O=C(CN1CCCC1)OCCCC1CCCCC1 | inconclusive: 12.1%
COc1ccc(-c2ccc(-c3cc(=O)oc4c(C(C)C)ccc(C)c34)cc2)cc1 | inactive: -0.2%
Cc1cccc(N2CCN(C(=O)[C@H](C)N3C(=O)C4CC=CCC4C3=O)CC2)c1C (stereo not given in full) | inactive: 0%
Cn1c(N)c(C(=O)Nc2c(Cl)cccc2Cl)sc1=S | inconclusive: -7.3%
Cc1ccc(S(=O)(=O)NCCN2CCOCC2)s1 | inactive: 0.1%
COc1ccc(NCc2nnc(SCC(=O)Nc3cc(C)cc(C)c3)o2)cc1 | inconclusive: 2.7%
CC(=O)Nc1ccc(NS(=O)(=O)C(F)(F)F)cc1 | inconclusive: 1.8%
O=C(c1ccc2nc[nH]c2c1)N1CCN(S(=O)(=O)c2cccc(Cl)c2)CC1 | inconclusive: -4.1%
O=C(c1ccccc1)c1ccc(CN2C(=O)c3ccccc3C2=O)o1 | inconclusive: 0.2%
CS(=O)(=O)c1ccc(C(=O)NC2CCOC2=O)cc1 (stereo not given) | inconclusive: -5.9%
O=C(NC(=S)Nc1ccc(CN2CCCCC2)cc1)c1cc2ccccc2o1 | inconclusive: 7.8%
O=C(NC(=S)Nc1nc2c(ccc3ccccc32)s1)c1cccs1 | inactive: -0.9%
CCNc1ccc(Br)cc(C(=O)/C=C/c2c(Cl)cccc2Cl)c1=O | active: 59%
CCc1nc2oc3cc(OC)ccc3c(=O)c2c(=O)n1Cc1ccccc1 | inconclusive: -2.7%
COc1ccc(CN2C(=O)C(CC(=O)NCc3ccco3)CC(C(=O)N3CCOCC3)=C2C)cc1 (stereo not given) | inactive: 0.3%
CCOC(=O)C1=NNC2C(=O)N(Cc3ccccc3)C(=O)C12 (stereo not given) | inconclusive: -48%
Cc1cc(C)n(CC(=O)NC2CCCCC2)n1 | inconclusive: 3%
CCS(=O)(=O)Nc1ccc(C2=NN(C(=O)c3ccco3)C(c3ccc(C)cc3)C2)cc1 (stereo not given) | inconclusive: -2.1%
CCCN(CC(=O)Nc1ccccc1C)C(=O)c1ccc2ccccc2n1 | inactive: 1.7%
O=C(CSC1CN(C(c2ccccc2)c2ccccc2)C1)N/N=C/c1ccc(Cl)cc1Cl | inconclusive: -5.2%
COc1ccc(N(CC(=O)N/N=C/c2ccc(-c3ccc([N+](=O)[O-])cc3)o2)S(=O)(=O)c2ccc(C)cc2)cc1Cl | active: 55.5%
COc1ccc(CN(C)C(=O)Cn2cc(C)c(=O)[nH]c2=O)cc1OC | inactive: -0.5%

Four entries from above, in CSV form.
SMILES,inhibition
O=C(CNC(=O)c1ccc(Cl)c([N+](=O)[O-])c1)OCN1C(=O)c2ccccc2C1=O,inactive: -1.3%
COc1ccc(CN2CCOCCOCCOCCOCC2)cc1,inconclusive: 3.6%
O=C(c1ccccc1)c1ccc(CN2C(=O)c3ccccc3C2=O)o1,inconclusive: 0.2%
CCc1nc2oc3cc(OC)ccc3c(=O)c2c(=O)n1Cc1ccccc1,inconclusive: -2.7%

Going on with the list.

SMILES | inhibition
O=C(NCc1ccc2c(c1)OCO2)c1nn(-c2ccccc2)c(=O)c2ccccc12 | inconclusive: -7%
COc1nc(NCc2cccnc2)nc(OC)n1 | inconclusive: -0.2%
CCn1nc(C)c(C(=O)Nc2cc(Oc3cc(C)cc(C)c3)cc([N+](=O)[O-])c2)c1C | inconclusive: 0.9%
COc1cc(/C=C/C=C2/CC/C(=C/C=C/c3ccc(O)c(OC)c3)C2=O)ccc1O | active: 38.6%
CCCNC(=O)Nc1cc(C)on1 | inactive: 0.6%
NS(=O)(=O)c1ccc(CCNC(=O)C2COc3ccccc3O2)cc1 (stereo not given) | inconclusive: 0.6%
Cc1ccc(CSc2ncnc3onc(C)c23)cc1 | inconclusive: -4.4%
Cc1cccc(C)c1N1CCN(c2c(C)cccc2C)CC1 | inconclusive: -3.5%
CC(C)(C)n1cnnc1Sc1ccc([N+](=O)[O-])cn1 | inconclusive: 6%
Cc1cc(NC(=O)c2cc3n(n2)C(C(F)(F)F)CC(c2ccco2)N3)no1 (stereo not given) | inactive: -0.9%
O=[N+]([O-])c1cccc(/C=N/Nc2ccccn2)c1 | inactive: 0.5%
Cc1ccc2c(c1)N(Cc1cccc(F)c1)C(=O)C(C)O2 (stereo not given) | inactive: 1.7%
c1ccc(C2CC(c3ccccc3)n3ncnc3N2)cc1 (stereo not given) | inactive: 0.4%
Cc1ccc(C)c2[nH]c(=O)c(CN(Cc3ccco3)C(=S)NCC3CCCO3)cc12 (stereo not given) | inactive: 0%
Cc1ccc2[nH]c(C(F)(F)F)cc(=O)c2c1 | inconclusive: 2%
COc1ccc(C(=O)NC(C)(C)C)cc1S(=O)(=O)N1CCCC1 | inactive: 0.4%
Nc1ccccc1C(=O)NNc1ncc(C(F)(F)F)cc1Cl | inconclusive: -1.3%
O=C(CN(CCc1ccccc1)S(=O)(=O)c1ccc(Br)cc1)N/N=C/c1ccc2c(c1)OCO2 | inactive: 0%
Cc1ccc(Cl)c(OCCCN(C)Cc2ccccc2)c1 | inactive: -1.1%
COCCCNC(=S)N(CCCO)Cc1cc2cc3c(cc2[nH]c1=O)OCO3 | inconclusive: -1%
O=C(COc1ccc(S(=O)(=O)NC2CCCCC2)cc1Cl)N1CCN(c2ccccc2)CC1 | inconclusive: 1.4%
Cc1cccc(NC(=O)C2CCCN2C(=O)NC2CCCCC2)c1 (stereo not given) | inactive: 0.1%
COc1ccc(C(=S)N2CCN(c3cccc(Cl)c3)CC2)c(OC)c1 | inactive: -1.9%

SMILES | inhibition
COc1ccc(-n2nc(C(=O)NCC(=O)N3CCN(c4ccccn4)CC3)c3ccccc3c2=O)cc1 | inconclusive: -0.2%
Cc1ccccc1NC1=C/C(=N\S(=O)(=O)c2cccs2)c2ccccc2C1=O | inconclusive: -3.9%
c1ccc(-c2nc(NCc3ccco3)c3oc4ccccc4c3n2)cc1 | inconclusive: 1.7%
CC(=O)Oc1ccc(N(C(C)=O)S(=O)(=O)c2ccc(C)cc2)c2ccccc12 | inconclusive: -6.2%
CC(C)OC(=O)CSc1nnc(-c2cnccn2)n1-c1ccc(Cl)cc1 | inconclusive: -7.4%
CCN1C(=O)C(CC(=O)Nc2ccc(OC)cc2)N(CCc2ccccc2F)C1=S (stereo not given) | inconclusive: -2.8%
Cc1ccc(S(=O)(=O)NCc2ccc(C(=O)NCCN(Cc3ccccc3)C(C)C)cc2)cc1 | inactive: -1%
Cc1cc(C(=O)Nc2ccccc2N2CCOCC2)c(C)o1 | inconclusive: 1.5%
CC(NC(=O)c1cccnc1)c1ccc2c(c1)OCO2 (stereo not given) | inconclusive: -1.3%
Cc1ccccc1-n1c(SCc2c(C)noc2C)nnc1-c1ccncc1 | inconclusive: 5.6%
Cn1c(N)c(C(=O)CSc2n[nH]c(-c3ccccc3)n2)c(=O)n(C)c1=O | inactive: -0.2%
O=C(Nc1ccc(F)cc1F)N1CCCCC1c1cccnc1 (stereo not given) | inconclusive: -0.8%
CCCCC(=O)N1CCCC(c2nc3c(nnn3Cc3cc(C)ccc3C)c(=O)[nH]2)C1 (stereo not given) | inactive: 0.5%
COCc1cc(OC)nc(-c2csc(C)n2)n1 | inconclusive: 27.5%
CC(C)c1ccc(-n2c(O)c(/C=N/N3CCOCC3)c(=O)[nH]c2=S)cc1 | inconclusive: 14.9%
O=C(CSc1nnc(Cc2ccccc2)n1Cc1ccco1)NC12CC3CC(CC(C3)C1)C2 | inconclusive: -1.2%
CCOc1ccccc1N(CC(=O)NC(C)(C)C)C(=O)Cn1nnc(-c2ccc(C)o2)n1 | inconclusive: 27.2%
CCNC(=O)CC1C(=O)N(c2ccccc2)C(=O)N1CCc1ccc(OC)c(OC)c1 (stereo not given) | inconclusive: 3.1%
COC(=O)c1nc(NC(=O)c2ccccc2)n[nH]1 | inconclusive: 5.7%
COc1cnc(-c2cccc(C(F)(F)F)c2)c(NC(=O)c2cc3ccccc3s2)n1 | inactive: -0.3%
C=CCNC(=O)c1c[nH]c2ccc(S(=O)(=O)N(C)c3ccc(OCC)cc3)cc2c1=O | inactive: -1%
